Test results from PMC12827560.
For at least one entry, the source does not settle the construct or the ends of the probe. At least one result comes from cells or an extract, where the contact may be indirect.

Legend:
FOXA1 [1] = experiment: competition with a labelled probe; conditions: 200-fold excess vs T1-Wt-IR680; EMSA: room temperature, 30 min, 6% native polyacrylamide gel; salt and pH not stated; protein in an extract
FOXA2 [2] = experiment: competition with a labelled probe; conditions: 200-fold excess vs T1-Wt-IR680; EMSA: room temperature, 30 min, 6% native polyacrylamide gel; salt and pH not stated; protein in an extract
FOXA3 [3] = experiment: competition with a labelled probe; conditions: 200-fold excess vs T1-Wt-IR680; EMSA: room temperature, 30 min, 6% native polyacrylamide gel; salt and pH not stated; protein in an extract
GATA3 [4] = experiment: competition with a labelled probe; conditions: 200-fold excess vs T1-Wt-IR680; EMSA: room temperature, 30 min, 6% native polyacrylamide gel; salt and pH not stated; protein in an extract
FOXA1 [5] = experiment: EMSA; conditions: EMSA: room temperature, 30 min, 6% native polyacrylamide gel; salt and pH not stated; protein in an extract; label: IR680 at 5' end
FOXA2 [6] = experiment: EMSA; conditions: EMSA: room temperature, 30 min, 6% native polyacrylamide gel; salt and pH not stated; protein in an extract; label: IR680 at 5' end
FOXA3 [7] = experiment: EMSA; conditions: EMSA: room temperature, 30 min, 6% native polyacrylamide gel; salt and pH not stated; protein in an extract; label: IR680 at 5' end
GATA3 [8] = experiment: EMSA; conditions: EMSA: room temperature, 30 min, 6% native polyacrylamide gel; salt and pH not stated; protein in an extract; label: IR680 at 5' end

Measured: binding result

CTTAAGGCTCGGATGTTTGCTTTTGGCACT (double strand) [T1-Wt unlabeled competitor]
binds: FOXA1 [1] | FOXA2 [2] | FOXA3 [3] | GATA3 [4]

CTTAAGGCTCGGATGTTTGCTTTTGGCACT (double strand) [T1-Wt-IR680 (exJSRV LTR -146/-132)]
binds: FOXA1 [5] | FOXA2 [6] | FOXA3 [7] | GATA3 [8]
